We go through 1 molecule from patent publication US20170210777A1.

By UniProt entry, the sequences of proteins in these tests, tags left out. Residues count along the entry.
UniProt P02769, residues 25-607: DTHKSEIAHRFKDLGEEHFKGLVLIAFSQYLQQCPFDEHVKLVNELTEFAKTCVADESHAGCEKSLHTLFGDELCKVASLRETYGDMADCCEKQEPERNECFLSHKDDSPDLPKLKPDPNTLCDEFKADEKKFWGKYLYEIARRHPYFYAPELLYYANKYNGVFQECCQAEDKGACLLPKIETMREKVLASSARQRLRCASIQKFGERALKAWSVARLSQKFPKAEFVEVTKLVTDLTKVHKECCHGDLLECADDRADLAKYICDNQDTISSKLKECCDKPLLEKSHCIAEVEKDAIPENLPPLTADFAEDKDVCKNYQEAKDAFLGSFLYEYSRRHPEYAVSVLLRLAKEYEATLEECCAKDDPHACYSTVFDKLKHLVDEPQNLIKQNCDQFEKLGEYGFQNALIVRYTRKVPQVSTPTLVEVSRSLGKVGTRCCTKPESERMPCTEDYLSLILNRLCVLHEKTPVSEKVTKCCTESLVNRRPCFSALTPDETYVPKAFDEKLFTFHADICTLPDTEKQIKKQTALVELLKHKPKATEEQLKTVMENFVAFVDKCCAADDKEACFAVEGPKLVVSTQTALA

The assay has as its target Bovine Serum Albumin (BSA, manufactured by Sigma-Aldrich) (bovine) (UniProt P02769). Put plainly: SPR, ligand immobilised on CM5, BSA 1000 nM injected 10 min; grade D = Confirmed to be bound to BSA. Background: In SPR one partner is held on a chip, and binding of the other changes the refractive index at the surface.

Results are given in words; binding and its absence hold for the method and conditions named. Some entries that bind do so weakly or less than the wild type.

Turning to QQNAFYEI [polypeptide as set forth in SEQ ID NO: 26 (QQNAFYEI)], the binding result is reported as “binds”.
